Source: PubChem BioAssay AID1487 (National Center for Advancing Translational Sciences (NCATS), 2009)
The list shows a part of the results. Shown are side measurements of this screen, not its main read-out; they come without a call. The list favours compounds with an active or inconclusive main result. The note in brackets gives the kind of curve behind each potency; many fits are weak.

Test: qHTS Assay for Modulators of Lamin A Splicing
Details: HeLa LMNA splicing GFP/RFP minigene ratio, 48 h
Outline: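 S3 HeLa cells stably expressing lamin A-EGFP splicing minigene plus DsRed2, 600 cells/well, 48 h compound exposure at 37C. Laser-scanning cytometry; analysed as GFP (500-530 nm)/RFP (575-640 nm) total intensity ratio; 0.5% DMSO vehicle.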

[1] = measured here: GFP splicing reporter channel
[2] = measured here: RFP viability control channel

SMILES | AC50 [1] | AC50 [2]
CCc1nn(CCCN2CCN(c3cccc(Cl)c3)CC2)c(=O)n1CCOc1ccccc1 | 3.55 µM [falling, partial curve] | 0.112 µM [falling, partial curve, poor fit]
Cc1c(Cl)cccc1NC(=O)CSc1nc(=O)n(Cc2ccncc2)c2c1CCC2 |  | 31.6 µM [rising, single point]
Cc1ccc2c(c1)/C(=N/N1C(=O)c3ccccc3C1=O)C(=O)N2 |  | 12.6 µM [rising, partial curve]
O=C(CCNc1cccc(F)c1)c1cccc([N+](=O)[O-])c1 | 17.8 µM [falling, partial curve, poor fit] | 22.4 µM [falling, partial curve, poor fit]
CN(C(=O)c1ccc(OC2CCN(S(=O)(=O)N(C)C)CC2)cc1)C1CCCCC1 | 0.447 µM [falling, full curve, poor fit] | 0.0891 µM [falling, full curve, poor fit]
CCc1nc(C)cn1S(=O)(=O)c1ccc([N+](=O)[O-])cc1 |  | 3.16 µM [rising, partial curve, poor fit]
COc1ccc(C(=O)NCc2ccc3c(c2)CCN3C(C)=O)cc1OC |  | 0.0794 µM [falling, full curve, poor fit]
C/C(=N/OCO/N=C(/C)c1ccc(F)cc1)c1ccc(F)cc1 |  | 10 µM [rising, partial curve, poor fit]
COCC(C)N=C1NN=C(c2c[nH]c3ccccc23)CS1 (stereo not drawn) | 0.00631 µM [falling, full curve, poor fit] | 0.00447 µM [falling, full curve, poor fit]
C/C(=N\NC(=O)c1cc(-c2cccnc2)nc2ccccc12)c1ccccc1O |  | 3.98 µM [rising, full curve]
COC(=O)c1sc(NC(=O)c2ccc(Cn3cc(Cl)cn3)o2)c(C#N)c1C |  | 15.8 µM [rising, single point]
CCCCOc1ccc(OCCNS(=O)(=O)N(C)C)cc1 |  | 15.8 µM [rising, single point]
COc1ccc(-c2ccc(SCC(=O)N3c4ccccc4CC3C)nn2)cc1OC (stereo not drawn) |  | 14.1 µM [rising, partial curve]
Cc1ccc(OCCN2C(=O)C(=O)c3cc(C)ccc32)cc1 |  | 0.0251 µM [rising, full curve, poor fit]
CC1=CC(=O)OC1Cc1ccncc1 (stereo not drawn) |  | 5.62 µM [falling, single point]
COC(=O)CC/C(=N/Nc1ccc(Cl)c(Cl)c1)C(=O)OC | 0.501 µM [falling, full curve, poor fit] | 
Cn1c(=O)[nH]c(=O)c2c1nc(N1CCCC1)n2CCCSc1nnnn1-c1ccccc1 |  | 2.24 µM [falling, partial curve, poor fit]
CCN(Cc1ccccc1)c1ccc(/C=N/NS(=O)(=O)c2ccc(C)c([N+](=O)[O-])c2)cc1 |  | 35.5 µM [rising, partial curve]
C=CCN(c1ccccc1)S(=O)(=O)c1ccc2c(c1)oc(=O)n2C |  | 6.31 µM [rising, single point]

SMILES | AC50 [1] | AC50 [2]
CC(C)CN(C#N)c1nc(N2CCOCC2)nc(N2CCOCC2)n1 |  | 12.6 µM [rising, single point]
Cc1ccc(-n2ncc(C(=O)NCc3ccc4c(c3)OCO4)c2C2CCN(C(=O)OC(C)(C)C)CC2)cc1C | 0.0501 µM [falling, full curve, poor fit] | 
COc1ccc(CN2CCCN(CC(=O)Nc3ccc(Br)cc3F)S2(=O)=O)cc1 | 17.8 µM [falling, partial curve] | 7.94 µM [falling, full curve, poor fit]
N#C/C(=C/c1cn(CC(=O)O)c2ccccc12)C(=O)Nc1ccccc1 | 0.0224 µM [rising, full curve, poor fit] | 
O=C(Nc1ccc2ccccc2c1)/C(=C/c1cccc(Br)c1)NC(=O)c1ccco1 | 10 µM [rising, partial curve, poor fit] | 20 µM [rising, partial curve, poor fit]
COc1cccc(/C=N/NC(=O)CNC(=O)c2ccc3c(c2)OCCO3)c1O |  | 31.6 µM [rising, single point]
CC(C)c1cccc(C(C)C)c1NC(=O)CNCc1ccccc1F | 31.6 µM [rising, single point] | 
COC(=O)C1=NNC2(c3ccc(C)cc3)C(=O)N(c3ccc(C)cc3)C(=O)C12 (stereo not drawn) | 35.5 µM [falling, single point] | 17.8 µM [falling, single point]
Cc1cccc2sc(N(Cc3cccnc3)C(=O)CCS(=O)(=O)c3ccccc3)nc12 |  | 0.0708 µM [falling, full curve, poor fit]
COc1ccc(-c2cc(C(F)(F)F)nc(S(C)(=O)=O)n2)cc1OC | 5.62 µM [falling, full curve] | 5.01 µM [falling, full curve]
CCCCn1c(CN2CCN(C(=O)OCC)CC2)nc2c1c(=O)n(C)c(=O)n2C |  | 0.501 µM [rising, full curve, poor fit]
NC(=S)NN=C1C2CC3CC(C2)CC1C3 | 0.891 µM [rising, partial curve] | 
Cc1ccccc1OCCOc1cccc(/C=N/NC(=O)Cc2nnc(N)s2)c1 | 11.2 µM [rising, single point] | 31.6 µM [rising, single point]
O=C(NC(=S)Nc1ccc(N2CCCCC2)cc1)c1ccc2c(c1)OCCO2 | 3.16 µM [rising, full curve] | 5.62 µM [rising, partial curve]
Cc1ccc(NC(=O)Cc2ccc3c(c2)CCCC3)cc1C |  | 14.1 µM [rising, partial curve]
CCOc1ccc(NC(=O)c2ccc3c(c2)N(Cc2ccc(F)cc2)C(=O)CS3=O)cc1 (stereo not drawn) |  | 35.5 µM [rising, single point]
Cc1cccc(-c2nc(SCc3cc(=O)c4cccc(F)c4[nH]3)n[nH]2)c1 | 0.562 µM [rising, single point] | 
CCN(CC)c1ccc(C(=O)Nc2cccc(F)c2)cc1 |  | 12.6 µM [rising, single point]
COC(=O)c1cccc(NC(=O)CCc2cc(OC)c(OC)c(OC)c2)c1 | 5.01 µM [rising, partial curve] | 15.8 µM [rising, single point]

SMILES | AC50 [1] | AC50 [2]
CCc1ccccc1NC(=O)CN(C)C(=O)CSc1nc2cc(Cl)ccc2s1 | 5.01 µM [rising, partial curve] | 12.6 µM [rising, partial curve]
O=C(NCCS(=O)(=O)N1CCN(c2ccccc2F)CC1)c1ccccc1C(F)(F)F | 2.51 µM [falling, partial curve, poor fit] | 0.00447 µM [falling, full curve, poor fit]
COc1ccccc1Cc1nc(-c2ccc(C)cc2)no1 | 11.2 µM [rising, single point] | 15.8 µM [rising, single point]
O=C(N/N=C/C=C/c1cccc([N+](=O)[O-])c1)C(O)c1ccccc1 (stereo not drawn) | 31.6 µM [rising, single point] | 
O=C1COc2ccc(C(=O)/C=C/c3ccccc3)cc2N1 | 7.08 µM [falling, partial curve, poor fit] | 4.47 µM [falling, full curve, poor fit]
CCOC(=O)c1c(NC(=S)NC)sc2c1CC(C)(C)SC2 |  | 35.5 µM [rising, single point]
CCOc1ccc(-c2nnn(CC(=O)c3ccc4c(c3)OCCO4)n2)cc1OCC |  | 31.6 µM [rising, partial curve]
CCCCOP(=O)(c1ccc(N(C)C)cc1)C(O)c1ccccc1F (stereo not drawn) | 35.5 µM [rising, single point] | 15.8 µM [rising, single point]
CCOCCCNC(=O)/C(C#N)=C/c1cc(C)c(O)c(C)c1 |  | 20 µM [rising, partial curve, poor fit]
COc1ccc(OC)c(/C=N\NC(=O)CSc2nnc(CCCc3ccc(OC)c(C)c3)o2)c1 |  | 35.5 µM [rising, single point]
CC(C)CC(CO)N1CCN(C(=O)c2ccc(C(C)(C)C)cc2)CCC1=O (stereo not drawn) | 0.02 µM [falling, full curve, poor fit] | 
CC(C)(C)CC(C)(C)NC(=S)NC1CCN(Cc2ccccc2)CC1 |  | 35.5 µM [rising, single point]
CC(C)CC(=O)Nc1nnc(S(=O)(=O)N(C)c2ccc(Cl)cc2)s1 | 0.0631 µM [rising, full curve, poor fit] | 
CC(C)Cc1nnc(NC(=O)Cc2cccs2)s1 |  | 39.8 µM [falling, partial curve, poor fit]
CCN(CC)S(=O)(=O)c1ccc(NC(=O)C2CCCN(C(=O)c3ccc(Cl)cc3)C2)cc1 (stereo not drawn) | 11.2 µM [rising, partial curve] | 14.1 µM [rising, partial curve]
Nc1ccc(Br)cc1C(NCC(=O)O)c1ccccc1 (stereo not drawn) | 0.0891 µM [falling, partial curve] | 
O=C(O)CCCCCN=C1CCc2ccccc2N1 | 35.5 µM [falling, single point] | 
Cc1ccc(NC(=S)NCCc2ccccc2)nc1 |  | 5.62 µM [rising, full curve]

Structural class: the entries above containing an aryl methoxy group (8)
SMILES | AC50 [1] | AC50 [2]
COc1ccc(C(=O)NCc2ccc3c(c2)CCN3C(C)=O)cc1OC |  | 0.0794 µM [falling, full curve, poor fit]
COc1ccc(-c2ccc(SCC(=O)N3c4ccccc4CC3C)nn2)cc1OC (stereo not drawn) |  | 14.1 µM [rising, partial curve]
COc1ccc(CN2CCCN(CC(=O)Nc3ccc(Br)cc3F)S2(=O)=O)cc1 | 17.8 µM [falling, partial curve] | 7.94 µM [falling, full curve, poor fit]
COc1cccc(/C=N/NC(=O)CNC(=O)c2ccc3c(c2)OCCO3)c1O |  | 31.6 µM [rising, single point]
COc1ccc(-c2cc(C(F)(F)F)nc(S(C)(=O)=O)n2)cc1OC | 5.62 µM [falling, full curve] | 5.01 µM [falling, full curve]
COC(=O)c1cccc(NC(=O)CCc2cc(OC)c(OC)c(OC)c2)c1 | 5.01 µM [rising, partial curve] | 15.8 µM [rising, single point]
COc1ccccc1Cc1nc(-c2ccc(C)cc2)no1 | 11.2 µM [rising, single point] | 15.8 µM [rising, single point]
COc1ccc(OC)c(/C=N\NC(=O)CSc2nnc(CCCc3ccc(OC)c(C)c3)o2)c1 |  | 35.5 µM [rising, single point]

Not a retest: an excerpt of the list.
SMILES | AC50 [1] | AC50 [2]
O=C(NCCS(=O)(=O)N1CCN(c2ccccc2F)CC1)c1ccccc1C(F)(F)F | 2.51 µM [falling, partial curve, poor fit] | 0.00447 µM [falling, full curve, poor fit]
COc1ccccc1Cc1nc(-c2ccc(C)cc2)no1 | 11.2 µM [rising, single point] | 15.8 µM [rising, single point]
